Results published in patent publication US20210147572A1, “ANTIBODIES AND METHODS OF USE THEREOF” (AbeXXa Biologics, Inc., priority 2017, published 2021).
Results are given in words; binding and its absence hold for the method and conditions named. Some results given as binding are weak or reduced against the parent protein; the word gives no strength.

By UniProt entry, the sequences of proteins in these tests, tags left out. Where a name states a change or a piece, a line headed by the entry shows the natural chain unless it says otherwise.
UniProt P13747: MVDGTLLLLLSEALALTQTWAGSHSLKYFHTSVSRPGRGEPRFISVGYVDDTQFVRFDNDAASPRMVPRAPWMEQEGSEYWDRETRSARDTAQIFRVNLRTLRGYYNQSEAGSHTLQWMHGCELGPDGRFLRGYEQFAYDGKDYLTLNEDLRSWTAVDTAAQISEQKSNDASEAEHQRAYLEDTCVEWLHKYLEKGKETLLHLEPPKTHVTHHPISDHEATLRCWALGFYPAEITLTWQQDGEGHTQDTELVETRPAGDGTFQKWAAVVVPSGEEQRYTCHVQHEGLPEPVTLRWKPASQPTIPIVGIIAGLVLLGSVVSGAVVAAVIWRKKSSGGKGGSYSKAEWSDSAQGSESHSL
UniProt P61769: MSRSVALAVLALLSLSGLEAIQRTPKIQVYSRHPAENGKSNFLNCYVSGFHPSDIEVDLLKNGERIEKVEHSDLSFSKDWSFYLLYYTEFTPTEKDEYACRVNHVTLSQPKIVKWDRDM

Biological target: HLA-E molecules expressed in PDX lung tumor tissue (model LU5139) (human) (UniProt P13747+P61769)
Test: 4D12 affinity capture of HLA-E, peptide elution, LC/MS/MS

B1: peptide GLADKVYFL (CAD protein) (peptide)
peptide: GLADKVYFL
Question: How did the binding turn out when B1 was run?
Answer: binds
